Experiment [1] addresses SRRM2-tr0-GFP (human (endogenous in HAP1)) (UniProt Q9UQ35). The experiment can be described thus: affinity purification with mass spectrometry.
In the next experiment the target is miniTurbo–TAF2 (human) (UniProt Q6P1X5). The experiment can be described thus: proximity labelling.
The next experiment deals with GFP-TAF2ΔIDR (human). The experiment can be described thus: affinity purification with mass spectrometry.
The next experiment addresses GFP–TAF2 (human) (UniProt Q6P1X5). The experiment can be described thus: affinity purification with mass spectrometry.

By UniProt entry, the sequences of proteins in these tests, tags left out.
UniProt Q6P1X5: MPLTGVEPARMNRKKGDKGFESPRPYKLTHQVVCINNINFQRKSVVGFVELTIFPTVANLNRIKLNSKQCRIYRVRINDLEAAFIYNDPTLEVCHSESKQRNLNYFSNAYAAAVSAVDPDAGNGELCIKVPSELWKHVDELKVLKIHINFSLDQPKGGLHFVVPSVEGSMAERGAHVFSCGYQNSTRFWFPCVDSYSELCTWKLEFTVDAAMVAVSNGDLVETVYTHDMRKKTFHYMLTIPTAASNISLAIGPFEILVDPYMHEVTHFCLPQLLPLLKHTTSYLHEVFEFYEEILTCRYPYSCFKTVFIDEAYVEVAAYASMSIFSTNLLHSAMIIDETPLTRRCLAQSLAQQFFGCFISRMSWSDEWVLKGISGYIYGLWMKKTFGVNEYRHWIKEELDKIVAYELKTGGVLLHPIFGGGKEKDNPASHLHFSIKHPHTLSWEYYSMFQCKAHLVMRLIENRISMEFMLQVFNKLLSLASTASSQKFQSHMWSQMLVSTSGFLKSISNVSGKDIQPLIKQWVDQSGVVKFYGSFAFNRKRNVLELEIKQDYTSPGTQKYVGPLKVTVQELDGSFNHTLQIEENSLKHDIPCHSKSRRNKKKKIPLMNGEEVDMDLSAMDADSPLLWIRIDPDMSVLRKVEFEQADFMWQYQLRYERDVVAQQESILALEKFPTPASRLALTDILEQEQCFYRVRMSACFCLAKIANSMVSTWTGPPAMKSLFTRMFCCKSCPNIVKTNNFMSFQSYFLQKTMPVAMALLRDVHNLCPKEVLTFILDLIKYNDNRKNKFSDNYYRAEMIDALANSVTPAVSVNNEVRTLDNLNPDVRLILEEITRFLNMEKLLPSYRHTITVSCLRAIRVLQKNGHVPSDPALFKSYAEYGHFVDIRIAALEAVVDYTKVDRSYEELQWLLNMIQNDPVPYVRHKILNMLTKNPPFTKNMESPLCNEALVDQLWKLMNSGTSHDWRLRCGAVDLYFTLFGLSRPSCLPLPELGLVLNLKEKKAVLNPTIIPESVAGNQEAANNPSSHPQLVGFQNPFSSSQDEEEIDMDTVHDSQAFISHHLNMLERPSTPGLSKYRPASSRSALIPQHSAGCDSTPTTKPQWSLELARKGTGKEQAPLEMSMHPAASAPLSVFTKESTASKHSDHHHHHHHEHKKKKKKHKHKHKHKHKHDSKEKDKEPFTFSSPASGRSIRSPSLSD
UniProt P18583: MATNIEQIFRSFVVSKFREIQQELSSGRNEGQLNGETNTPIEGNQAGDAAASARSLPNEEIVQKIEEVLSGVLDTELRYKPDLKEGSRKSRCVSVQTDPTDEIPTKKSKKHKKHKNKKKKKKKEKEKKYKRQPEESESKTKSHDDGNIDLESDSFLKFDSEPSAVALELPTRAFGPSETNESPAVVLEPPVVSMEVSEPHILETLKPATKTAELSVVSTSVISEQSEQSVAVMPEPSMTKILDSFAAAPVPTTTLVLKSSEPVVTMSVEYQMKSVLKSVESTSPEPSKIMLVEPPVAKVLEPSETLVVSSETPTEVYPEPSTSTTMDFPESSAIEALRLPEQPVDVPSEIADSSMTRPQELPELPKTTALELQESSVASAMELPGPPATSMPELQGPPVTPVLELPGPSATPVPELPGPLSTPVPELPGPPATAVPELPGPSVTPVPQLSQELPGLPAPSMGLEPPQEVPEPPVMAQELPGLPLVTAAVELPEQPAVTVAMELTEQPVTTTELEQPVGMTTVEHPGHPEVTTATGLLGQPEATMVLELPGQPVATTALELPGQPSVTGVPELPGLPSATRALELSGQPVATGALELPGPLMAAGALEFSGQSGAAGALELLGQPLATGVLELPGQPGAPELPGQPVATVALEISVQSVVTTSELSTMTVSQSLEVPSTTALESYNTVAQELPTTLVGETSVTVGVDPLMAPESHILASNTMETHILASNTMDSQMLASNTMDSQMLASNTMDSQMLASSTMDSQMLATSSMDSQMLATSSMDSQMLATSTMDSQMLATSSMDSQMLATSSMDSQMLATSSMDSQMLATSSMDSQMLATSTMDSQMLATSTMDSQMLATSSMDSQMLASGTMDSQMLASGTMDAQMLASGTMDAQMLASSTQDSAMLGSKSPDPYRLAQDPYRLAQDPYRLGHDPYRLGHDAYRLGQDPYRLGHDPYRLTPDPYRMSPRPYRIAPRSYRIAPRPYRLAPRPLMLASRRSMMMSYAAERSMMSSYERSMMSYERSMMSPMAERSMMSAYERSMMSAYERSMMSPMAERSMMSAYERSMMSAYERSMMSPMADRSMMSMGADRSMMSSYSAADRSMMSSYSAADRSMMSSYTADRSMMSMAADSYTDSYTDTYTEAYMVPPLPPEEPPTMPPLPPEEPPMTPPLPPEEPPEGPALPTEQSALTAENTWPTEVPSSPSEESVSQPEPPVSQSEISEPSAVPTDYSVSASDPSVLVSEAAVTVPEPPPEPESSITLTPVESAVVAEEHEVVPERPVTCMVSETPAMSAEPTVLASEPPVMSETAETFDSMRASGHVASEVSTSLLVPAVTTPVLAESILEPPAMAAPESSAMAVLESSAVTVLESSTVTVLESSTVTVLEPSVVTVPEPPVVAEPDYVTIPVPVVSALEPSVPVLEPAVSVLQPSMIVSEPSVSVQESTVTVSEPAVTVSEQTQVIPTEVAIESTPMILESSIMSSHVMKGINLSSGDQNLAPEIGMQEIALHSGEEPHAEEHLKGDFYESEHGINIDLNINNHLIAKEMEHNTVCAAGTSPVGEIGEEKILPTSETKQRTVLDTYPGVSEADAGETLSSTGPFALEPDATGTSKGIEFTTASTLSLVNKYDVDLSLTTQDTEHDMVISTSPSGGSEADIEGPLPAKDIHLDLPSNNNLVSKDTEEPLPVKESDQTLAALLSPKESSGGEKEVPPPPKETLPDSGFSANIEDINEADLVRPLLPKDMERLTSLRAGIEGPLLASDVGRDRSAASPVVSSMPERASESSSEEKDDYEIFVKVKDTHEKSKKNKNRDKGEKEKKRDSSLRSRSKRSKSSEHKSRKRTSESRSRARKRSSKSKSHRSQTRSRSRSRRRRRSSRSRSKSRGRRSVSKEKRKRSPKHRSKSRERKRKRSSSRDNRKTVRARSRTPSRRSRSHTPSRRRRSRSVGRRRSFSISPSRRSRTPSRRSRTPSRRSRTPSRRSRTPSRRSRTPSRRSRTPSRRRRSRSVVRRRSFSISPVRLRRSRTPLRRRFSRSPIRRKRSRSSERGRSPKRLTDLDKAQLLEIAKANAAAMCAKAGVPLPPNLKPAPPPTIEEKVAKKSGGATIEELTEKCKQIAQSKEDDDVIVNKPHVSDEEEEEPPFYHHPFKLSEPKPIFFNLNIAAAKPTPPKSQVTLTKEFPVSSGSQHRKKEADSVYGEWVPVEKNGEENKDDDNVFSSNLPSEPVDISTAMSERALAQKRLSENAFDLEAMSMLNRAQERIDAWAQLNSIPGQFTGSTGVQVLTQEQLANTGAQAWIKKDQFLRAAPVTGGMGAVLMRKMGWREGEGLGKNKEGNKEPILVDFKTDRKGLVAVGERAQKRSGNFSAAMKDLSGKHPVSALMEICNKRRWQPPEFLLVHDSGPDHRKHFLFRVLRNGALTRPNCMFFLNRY
UniProt O15042: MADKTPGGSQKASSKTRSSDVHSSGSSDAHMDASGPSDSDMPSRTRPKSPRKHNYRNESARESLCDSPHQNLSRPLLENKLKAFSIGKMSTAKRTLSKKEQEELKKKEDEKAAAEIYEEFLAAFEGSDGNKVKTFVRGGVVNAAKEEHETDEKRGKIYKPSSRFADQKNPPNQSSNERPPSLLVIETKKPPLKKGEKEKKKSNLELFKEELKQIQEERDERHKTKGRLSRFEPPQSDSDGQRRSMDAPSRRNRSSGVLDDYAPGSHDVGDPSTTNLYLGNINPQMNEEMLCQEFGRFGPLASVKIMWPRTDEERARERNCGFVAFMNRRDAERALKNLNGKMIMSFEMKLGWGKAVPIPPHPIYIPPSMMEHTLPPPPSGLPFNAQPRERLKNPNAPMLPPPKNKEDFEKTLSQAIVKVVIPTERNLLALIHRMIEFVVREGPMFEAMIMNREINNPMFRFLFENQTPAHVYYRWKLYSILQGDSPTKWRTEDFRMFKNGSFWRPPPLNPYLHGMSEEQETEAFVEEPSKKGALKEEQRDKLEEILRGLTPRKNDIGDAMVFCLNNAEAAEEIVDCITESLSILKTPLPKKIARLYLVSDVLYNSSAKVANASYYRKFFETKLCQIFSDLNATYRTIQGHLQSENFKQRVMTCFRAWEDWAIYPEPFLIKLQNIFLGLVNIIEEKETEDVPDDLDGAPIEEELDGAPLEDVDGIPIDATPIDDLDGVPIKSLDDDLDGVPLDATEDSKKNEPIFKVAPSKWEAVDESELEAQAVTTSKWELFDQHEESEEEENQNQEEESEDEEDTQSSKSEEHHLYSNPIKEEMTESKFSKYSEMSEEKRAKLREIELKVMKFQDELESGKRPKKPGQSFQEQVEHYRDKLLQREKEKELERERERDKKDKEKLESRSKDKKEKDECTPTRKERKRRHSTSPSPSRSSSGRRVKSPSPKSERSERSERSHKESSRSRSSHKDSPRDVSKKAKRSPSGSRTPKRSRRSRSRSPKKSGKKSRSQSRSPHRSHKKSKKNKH

Results are given in words; binding and its absence hold for the method and conditions named. In cells and extracts the contact can be indirect. These calls come from enrichment with a bait or labelling near it, and not all partners need be listed.

For the molecule “TAF2 (endogenous, HAP1) (from UniProt Q6P1X5 1-1199)”, the binding result in experiment [1] is “binds”.

Turning to SON (from UniProt P18583 1-2426), the binding result in experiment [1] is “binds”.

Consider U2SURP (from UniProt O15042 1-1029), for which, in the experiment with miniTurbo–TAF2 (human), the binding result was “binds”.

B1: RBM14 (protein, UniProt Q96PK6 1-669)
chain: MKIFVGNVDGADTTPEELAALFAPYGTVMSCAVMKQFAFVHMRENAGALRAIEALHGHELRPGRALVVEMSRPRPLNTWKIFVGNVSAACTSQELRSLFERRGRVIECDVVKDYAFVHMEKEADAKAAIAQLNGKEVKGKRINVELSTKGQKKGPGLAVQSGDKTKKPGAGDTAFPGTGGFSATFDYQQAFGNSTGGFDGQARQPTPPFFGRDRSPLRRSPPRASYVAPLTAQPATYRAQPSVSLGAAYRAQPSASLGVGYRTQPMTAQAASYRAQPSVSLGAPYRGQLASPSSQSAAASSLGPYGGAQPSASALSSYGGQAAAASSLNSYGAQGSSLASYGNQPSSYGAQAASSYGVRAAASSYNTQGAASSLGSYGAQAASYGAQSAASSLAYGAQAASYNAQPSASYNAQSAPYAAQQAASYSSQPAAYVAQPATAAAYASQPAAYAAQATTPMAGSYGAQPVVQTQLNSYGAQASMGLSGSYGAQSAAAATGSYGAAAAYGAQPSATLAAPYRTQSSASLAASYAAQQHPQAAASYRGQPGNAYDGAGQPSAAYLSMSQGAVANANSTPPPYERTRLSPPRASYDDPYKKAVAMSKRYGSDRRLAELSDYRRLSESQLSFRRSPTKSSLDYRRLPDAHSDYARYSGSYNDYLRAAQMHSGYQRRM
Take B1: the binding entry with GFP-TAF2ΔIDR (human) and with GFP–TAF2 (human) was “binds” each time.

B2: SNRNP40 (protein, UniProt Q96DI7 1-357)
chain: MIEQQKRKGPELPLVPVKRQRHELLLGAGSGPGAGQQQATPGALLQAGPPRCSSLQAPIMLLSGHEGEVYCCKFHPNGSTLASAGFDRLILLWNVYGDCDNYATLKGHSGAVMELHYNTDGSMLFSASTDKTVAVWDSETGERVKRLKGHTSFVNSCYPARRGPQLVCTGSDDGTVKLWDIRKKAAIQTFQNTYQVLAVTFNDTSDQIISGGIDNDIKVWDLRQNKLTYTMRGHADSVTGLSLSSEGSYLLSNAMDNTVRVWDVRPFAPKERCVKIFQGNVHNFEKNLLRCSWSPDGSKIAAGSADRFVYVWDTTSRRILYKLPGHAGSINEVAFHPDEPIIISASSDKRLYMGEIQ
Turning to B2, in the experiment with miniTurbo–TAF2 (human), the binding entry is recorded as “binds”.

B3: XAB2 (protein, UniProt Q9HCS7 1-855)
chain: MVVMARLSRPERPDLVFEEEDLPYEEEIMRNQFSVKCWLRYIEFKQGAPKPRLNQLYERALKLLPCSYKLWYRYLKARRAQVKHRCVTDPAYEDVNNCHERAFVFMHKMPRLWLDYCQFLMDQGRVTHTRRTFDRALRALPITQHSRIWPLYLRFLRSHPLPETAVRGYRRFLKLSPESAEEYIEYLKSSDRLDEAAQRLATVVNDERFVSKAGKSNYQLWHELCDLISQNPDKVQSLNVDAIIRGGLTRFTDQLGKLWCSLADYYIRSGHFEKARDVYEEAIRTVMTVRDFTQVFDSYAQFEESMIAAKMETASELGREEEDDVDLELRLARFEQLISRRPLLLNSVLLRQNPHHVHEWHKRVALHQGRPREIINTYTEAVQTVDPFKATGKPHTLWVAFAKFYEDNGQLDDARVILEKATKVNFKQVDDLASVWCQCGELELRHENYDEALRLLRKATALPARRAEYFDGSEPVQNRVYKSLKVWSMLADLEESLGTFQSTKAVYDRILDLRIATPQIVINYAMFLEEHKYFEESFKAYERGISLFKWPNVSDIWSTYLTKFIARYGGRKLERARDLFEQALDGCPPKYAKTLYLLYAQLEEEWGLARHAMAVYERATRAVEPAQQYDMFNIYIKRAAEIYGVTHTRGIYQKAIEVLSDEHAREMCLRFADMECKLGEIDRARAIYSFCSQICDPRTTGAFWQTWKDFEVRHGNEDTIKEMLRIRRSVQATYNTQVNFMASQMLKVSGSATGTVSDLAPGQSGMDDMKLLEQRAEQLAAEAERDQPLRAQSKILFVRSDASREELAELAQQVNPEEIQLGEDEDEDEMDLEPNEVRLEQQSVPAAVFGSLKED
Regarding B3, the binding result with miniTurbo–TAF2 (human) was “binds”.
